PubChem BioAssay AID1259425 | University of Nebraska Medical Center – 2018
Here is an unselected part of about 14,000 reagents. Not stated in the record: the time to read-out.

Purpose: 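Find knockdowns that reproduce the gene expression pattern seen when KSR1 is lost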 (primary screen)
System: HCT116 human colon cancer cells
Reagents: siRNA pool against human genes, 50 nM siRNA
Measured: 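After 50 nM siRNA pool, branched-DNA assay measures six marker transcripts per well, minus blank, normalised to the geometric mean of two housekeeping transcripts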
Direction: BNIP3L mRNA: higher = more BNIP3L transcript after knockdown; NDRG1 mRNA: higher = more NDRG1 transcript after knockdown; BNIP3 mRNA: higher = more BNIP3 transcript after knockdown; ALDOC mRNA: higher = more ALDOC transcript after knockdown; ACSL5 mRNA: higher = more ACSL5 transcript after knockdown

The first 5 records, ahead of the listing:
| gene knocked down | BNIP3L mRNA, set 1 | NDRG1 mRNA, set 1 | BNIP3 mRNA, set 1 | ALDOC mRNA, set 1 | ACSL5 mRNA, set 1 |
| --- | --- | --- | --- | --- | --- |
| BRAP (BRCA1 associated protein) | 0.0504 | 0.131 | 0.268 | 0.0183 | 0.138 |
| ABCC1 | 0.0853 | 0.22 | 0.294 | 0.0154 | 0.19 |
| ZNF85 (zinc finger protein 85) | 0.0694 | 0.102 | 0.303 | 0.00656 | 0.161 |
| PCDHB4 (protocadherin beta 4) | 0.174 | 0.0628 | 0.33 | 0.0351 | 0.267 |
| MSRB1 (methionine sulfoxide reductase B1) | 0.201 | 0.687 | 0.109 | 0.0329 | 0.234 |

Results, repeating the preview:
| gene knocked down | BNIP3L mRNA, set 1 | NDRG1 mRNA, set 1 | BNIP3 mRNA, set 1 | ALDOC mRNA, set 1 | ACSL5 mRNA, set 1 |
| --- | --- | --- | --- | --- | --- |
| BRAP (BRCA1 associated protein) | 0.0504 | 0.131 | 0.268 | 0.0183 | 0.138 |
| ABCC1 | 0.0853 | 0.22 | 0.294 | 0.0154 | 0.19 |
| ZNF85 (zinc finger protein 85) | 0.0694 | 0.102 | 0.303 | 0.00656 | 0.161 |
| PCDHB4 (protocadherin beta 4) | 0.174 | 0.0628 | 0.33 | 0.0351 | 0.267 |
| MSRB1 (methionine sulfoxide reductase B1) | 0.201 | 0.687 | 0.109 | 0.0329 | 0.234 |
| SETD6 (SET domain containing 6, protein lysine methyltransferase) | 0.0672 | 0.323 | 0.435 | 0.0803 | 0.42 |
| SLC10A1 | 0.0482 | 0.186 | 0.335 | 0.00804 | 0.108 |
| ENOSF1 (enolase superfamily member 1) | 0.275 | 0.757 | 0.566 | 0.0163 | 0.188 |
| OCA2 (OCA2 melanosomal transmembrane protein) | 0.0963 | 0.111 | 0.261 | 0.0289 | 0.124 |
| CDK4 (cyclin dependent kinase 4) | 0.0715 | 0.184 | 0.3 | 0.00354 | 0.168 |
| GCLC (glutamate-cysteine ligase catalytic subunit) | 0.0682 | 0.137 | 0.228 | 0.0272 | 0.198 |
| HSPH1 (heat shock protein family H (Hsp110) member 1) | 0.158 | 0.0905 | 0.25 | 0.009 | 0.188 |
| DUT (deoxyuridine triphosphatase) | 0.111 | 0.235 | 0.247 | 0.0222 | 0.114 |
| RPAIN (RPA interacting protein) | 0.209 | 0.217 | 0.57 | 0.1 | 0.55 |
| MANSC1 (MANSC domain containing 1) | 0.117 | 0.148 | 0.341 | 0.0341 | 0.235 |
| SEC62 (SEC62 preprotein translocation factor) | 0.201 | 0.0696 | 0.653 | 0.0454 | 0.439 |
| CEP164 (centrosomal protein 164) | 0.19 | 0.128 | 0.262 | 0.00959 | 0.0562 |
| TBXAS1 (thromboxane A synthase 1) | 0.0801 | 0.0856 | 0.403 | 0.0142 | 0.147 |
| CUL9 (cullin 9) | 0.0589 | 0.198 | 0.242 | 0.0183 | 0.163 |
| PPCS (phosphopantothenoylcysteine synthetase) | 0.101 | 0.269 | 0.263 | 0.0557 | 0.296 |
| TUBB6 (tubulin beta 6 class V) | 0.129 | 0.13 | 0.192 | 0.0311 | 0.0829 |
| CD274 (CD274 molecule) | 0.0717 | 0.331 | 0.231 | 0.00832 | 0.228 |
| MAGI1 | 0.14 | 0.132 | 0.159 | 0.00747 | 0.268 |
| ICMT (isoprenylcysteine carboxyl methyltransferase) | 0.0935 | 0.34 | 0.304 | 0.016 | 0.176 |
| S100A2 (S100 calcium binding protein A2) | 0.101 | 0.0291 | 0.306 | 0.0228 | 0.0914 |
| VPS36 (vacuolar protein sorting 36 homolog) | 0.122 | 0.173 | 0.286 | 0.0214 | 0.158 |
| NTM (neurotrimin) | 0.137 | -0.011 | 0.455 | -0.0116 | 0.363 |
| LAMA2 (laminin subunit alpha 2) | 0.0772 | 0.125 | 0.34 | 0.0489 | 0.245 |
| DLEU1 (deleted in lymphocytic leukemia 1) | 0.186 | 0.484 | 0.518 | 0.0558 | 0.102 |
| F2RL1 (F2R like trypsin receptor 1) | 0.154 | 0.226 | 0.37 | 0.0421 | 0.154 |
| SUGCT (succinyl-CoA:glutarate-CoA transferase) | 0.251 | 0.197 | 0.362 | 0.0507 | 0.5 |
| CLK1 (CDC like kinase 1) | 0.116 | 0.225 | 0.31 | 0.0191 | 0.228 |
| SWAP70 (switching B cell complex subunit SWAP70) | 0.0572 | 0.256 | 0.301 | 0.0338 | 0.128 |
| BMP10 (bone morphogenetic protein 10) | 0.183 | 0.456 | 0.371 | 0.021 | 0.187 |
| RUNX3 (RUNX family transcription factor 3) | 0.0881 | 0.104 | 0.288 | 0.0116 | 0.195 |
| FYN (FYN proto-oncogene, Src family tyrosine kinase) | 0.162 | 0.103 | 0.342 | 0.0131 | 0.173 |
| LINC00525 (long independently transcribed non-coding RNA 525) | 0.19 | 0.369 | 0.432 | 0.0798 | 0.296 |
| APOBEC3B (apolipoprotein B mRNA editing enzyme catalytic subunit 3B) | 0.156 | 0.134 | 0.246 | 0.0194 | 0.0978 |
| NLRP8 (NLR family pyrin domain containing 8) | 0.126 | 0.145 | 0.362 | 0.0282 | 0.113 |
| DLL3 (delta like canonical Notch ligand 3) | 0.152 | 0.106 | 0.298 | 0.0364 | 0.213 |
| WDR70 (WD repeat domain 70) | 0.167 | 0.882 | 0.377 | 0.0197 | 0.287 |
| GRIP2 (glutamate receptor interacting protein 2) | 0.0825 | 0.352 | 0.363 | 0.0609 | 0.23 |
| SRSF9 (serine and arginine rich splicing factor 9) | 0.0926 | 0.145 | 0.301 | 0.0223 | 0.0795 |
| CDK5 (cyclin dependent kinase 5) | 0.109 | 0.116 | 0.0999 | 0.0221 | 0.11 |
| PTX3 (pentraxin 3) | 0.148 | 0.233 | 0.333 | 0.0151 | 0.184 |
| NSUN3 (NOP2/Sun RNA methyltransferase 3) | 0.0641 | 0.224 | 0.293 | 0.041 | 0.149 |
| TLR4 (toll like receptor 4) | 0.0774 | 0.26 | 0.305 | 0.0166 | 0.52 |
| KMT5C (lysine methyltransferase 5C) | 0.0792 | 0.557 | 0.308 | 0.0184 | 0.248 |
| PSG5 (pregnancy specific beta-1-glycoprotein 5) | 0.0482 | 0.201 | 0.25 | 0.0252 | 0.0922 |
| EPS15L1 (epidermal growth factor receptor pathway substrate 15 like 1) | 0.0769 | 0.343 | 0.218 | 0.0245 | 0.225 |
